Assay results taken from patent US20250283871A1, “COMPOSITIONS AND METHODS FOR MODULATING THE INTERACTION BETWEEN SS18-SSX FUSION ONCOPROTEIN AND NUCLEOSOMES” (Dana-Farber Cancer Institute, Inc., priority 2020, published 2025).

System: BAF complex subunits and histone proteins
Test: Mass spectrometry proteomics of purified HA-SS18 WT and HA-SS18-SSX1 complexes (Tables 5A-5E)
Parameters: species or system human
Details: for Total / Unique: HA-SS18SSX1_CHR_peptides; for Total: total peptides of the identified protein; for Unique: unique peptides of the identified protein; for Total (peptides) / Unique (peptides) / Total (total peptides) / Unique (unique peptides): HEK-293T
[1] = HA-SS18WT_CHR_peptides: HA-SS18 WT purification from nuclease-treated solubilized chromatin (CHR), label = protein identified
[2] = HA-SS18SSX1 purification, NE (soluble nuclear extract) fraction, peptides per identified protein
[3] = HA-SS18WT_CHR_peptides: protein identified in HA-SS18 WT BAF complex purification from nuclease-treated solubilized chromatin (CHR)
[4] = HA-SS18WT_NE_peptides: HA-SS18 WT complexes purified from nuclear extract (NE), label = protein identified (Gene Symbol)

B1: BRPF1 (protein, UniProt P55201 1-1214, looked up)
Peregrin: MGVDFDVKTFCHNLRATKPPYECPVETCRKVYKSYSGIEYHLYHYDHDNPPPPQQTPLRKHKKKGRQSRPANKQSPSPSEVSQSPGREVMSYAQAQRMVEVDLHGRVHRISIFDNLDVVSEDEEAPEEAPENGSNKENTETPAATPKSGKHKNKEKRKDSNHHHHHNVSASTTPKLPEVVYRELEQDTPDAPPRPTSYYRYIEKSAEELDEEVEYDMDEEDYIWLDIMNERRKTEGVSPIPQEIFEYLMDRLEKESYFESHNKGDPNALVDEDAVCCICNDGECQNSNVILFCDMCNLAVHQECYGVPYIPEGQWLCRRCLQSPSRAVDCALCPNKGGAFKQTDDGRWAHVVCALWIPEVCFANTVFLEPIDSIEHIPPARWKLTCYICKQRGSGACIQCHKANCYTAFHVTCAQQAGLYMKMEPVRETGANGTSFSVRKTAYCDIHTPPGSARRLPALSHSEGEEDEDEEEDEGKGWSSEKVKKAKAKSRIKMKKARKILAEKRAAAPVVSVPCIPPHRLSKITNRLTIQRKSQFMQRLHSYWTLKRQSRNGVPLLRRLQTHLQSQRNCDQVGRDSEDKNWALKEQLKSWQRLRHDLERARLLVELIRKREKLKRETIKVQQIAMEMQLTPFLILLRKTLEQLQEKDTGNIFSEPVPLSEVPDYLDHIKKPMDFFTMKQNLEAYRYLNFDDFEEDFNLIVSNCLKYNAKDTIFYRAAVRLREQGGAVLRQARRQAEKMGIDFETGMHIPHSLAGDEATHHTEDAAEEERLVLLENQKHLPVEEQLKLLLERLDEVNASKQSVGRSRRAKMIKKEMTALRRKLAHQRETGRDGPERHGPSSRGSLTPHPAACDKDGQTDSAAEESSSQETSKGLGPNMSSTPAHEVGRRTSVLFSKKNPKTAGPPKRPGRPPKNRESQMTPSHGGSPVGPPQLPIMSSLRQRKRGRSPRPSSSSDSDSDKSTEDPPMDLPANGFSGGNQPVKKSFLVYRNDCSLPRSSSDSESSSSSSSSAASDRTSTTPSKQGRGKPSFSRGTFPEDSSEDTSGTENEAYSVGTGRGVGHSMVRKSLGRGAGWLSEDEDSPLDALDLVWAKCRGYPSYPALIIDPKMPREGMFHHGVPIPVPPLEVLKLGEQMTQEAREHLYLVLFFDNKRTWQWLPRTKLVPLGVNQDLDKEKMLEGRKSNIRKSVQIAYHRALQHRSKVQGEQSSETSDSD
- Total: 3
- Unique: 3

B2: CHERP (protein, UniProt Q8IWX8 1-916, looked up)
Calcium homeostasis …: MEMPLPPDDQELRNVIDKLAQFVARNGPEFEKMTMEKQKDNPKFSFLFGGEFYSYYKCKLALEQQQLICKQQTPELEPAATMPPLPQPPLAPAAPIPPAQGAPSMDELIQQSQWNLQQQEQHLLALRQEQVTAAVAHAVEQQMQKLLEETQLDMNEFDNLLQPIIDTCTKDAISAGKNWMFSNAKSPPHCELMAGHLRNRITADGAHFELRLHLIYLINDVLHHCQRKQARELLAALQKVVVPIYCTSFLAVEEDKQQKIARLLQLWEKNGYFDDSIIQQLQSPALGLGQYQATLINEYSSVVQPVQLAFQQQIQTLKTQHEEFVTSLAQQQQQQQQQQQQLQMPQMEAEVKATPPPPAPPPAPAPAPAIPPTTQPDDSKPPIQMPGSSEYEAPGGVQDPAAAGPRGPGPHDQIPPNKPPWFDQPHPVAPWGQQQPPEQPPYPHHQGGPPHCPPWNNSHEGMWGEQRGDPGWNGQRDAPWNNQPDAAWNSQFEGPWNSQHEQPPWGGGQREPPFRMQRPPHFRGPFPPHQQHPQFNQPPHPHNFNRFPPRFMQDDFPPRHPFERPPYPHRFDYPQGDFPAEMGPPHHHPGHRMPHPGINEHPPWAGPQHPDFGPPPHGFNGQPPHMRRQGPPHINHDDPSLVPNVPYFDLPAGLMAPLVKLEDHEYKPLDPKDIRLPPPMPPSERLLAAVEAFYSPPSHDRPRNSEGWEQNGLYEFFRAKMRARRRKGQEKRNSGPSRSRSRSKSRGRSSSRSNSRSSKSSGSYSRSRSRSCSRSYSRSRSRSRSRSRSSRSRSRSQSRSRSKSYSPGRRRRSRSRSPTPPSSAGLGSNSAPPIPDSRLGEENKGHQMLVKMGWSGSGGLGAKEQGIQDPIKGGDVRDKWDQYKGVGVALDDPYENYRRNKSYSFIARMKARDECK
- Total: 3
- Unique: 3

B3: NOL11 (protein, UniProt Q9H8H0 1-719, looked up)
Nucleolar protein 11: MAALEEEFTLSSVVLSAGPEGLLGVEQSDKTDQFLVTDSGRTVILYKVSDQKPLGSWSVKQGQIITCPAVCNFQTGEYVVVHDNKVLRIWNNEDVNLDKVFKATLSAEVYRILSVQGTEPLVLFKEGAVRGLEALLADPQQKIETVISDEEVIKWTKFFVVFRHPVLIFITEKHGNYFAYVQMFNSRILTKYTLLLGQDENSVIKSFTASVDRKFISLMSLSSDGCIYETLIPIRPADPEKNQSLVKSLLLKAVVSGNARNGVALTALDQDHVAVLGSPLAASKECLSVWNIKFQTLQTSKELPQGTSGQLWYYGEHLFMLHGKSLTVIPYKCEVSSLAGALGKLKHSQDPGTHVVSHFVNWETPQGCGLGFQNSEQSRRILRRRKIEVSLQPEVPPSKQLLSTIMKDSEKHIEVEVRKFLALKQTPDFHTVIGDTVTGLLERCKAEPSFYPRNCLMQLIQTHVLSYSLCPDLMEIALKKKDVQLLQLCLQQFPDIPESVTCACLKIFLSIGDDSLQETDVNMESVFDYSINSVHDEKMEEQTEILQNGFNPEEDKCNNCDQELNKKPQDETKESTSCPVVQKRAALLNAILHSAYSETFLLPHLKDIPAQHITLFLKYLYFLYLKCSENATMTLPGIHPPTLNQIMDWICLLLDANFTVVVMMPEAKRLLINLYKLVKSQISVYSELNKIEVSFRELQKLNQEKNNRGLYSIEVLELF
- Total: 3
- Unique: 3
- Total (peptides) [1]: 5
- Unique (peptides) [1]: 5

B4: HACD3 (protein, UniProt Q9P035 1-362, looked up)
Very-long-chain …: MENQVLTPHVYWAQRHRELYLRVELSDVQNPAISITENVLHFKAQGHGAKGDNVYEFHLEFLDLVKPEPVYKLTQRQVNITVQKKVSQWWERLTKQEKRPLFLAPDFDRWLDESDAEMELRAKEEERLNKLRLESEGSPETLTNLRKGYLFMYNLVQFLGFSWIFVNLTVRFCILGKESFYDTFHTVADMMYFCQMLAVVETINAAIGVTTSPVLPSLIQLLGRNFILFIIFGTMEEMQNKAVVFFVFYLWSAIEIFRYSFYMLTCIDMDWKVLTWLRYTLWIPLYPLGCLAEAVSVIQSIPIFNETGRFSFTLPYPVKIKVRFSFFLQIYLIMIFLGLYINFRHLYKQRRRRYGQKKKKIH
- Total: 3
- Unique: 3
- Total (total peptides) [2]: 9
- Unique (unique peptides) [2]: 7
- Total (total peptides) [3]: 1
- Unique (unique peptides) [3]: 1
- Total (peptides) [4]: 9
- Unique (peptides) [4]: 7

B5: RRS1 (protein, UniProt Q15050 1-365, looked up)
Ribosome biogenesis …: MEGQSVEELLAKAEQDEAEKLQRITVHKELELQFDLGNLLASDRNPPTGLRCAGPTPEAELQALARDNTQLLINQLWQLPTERVEEAIVARLPEPTTRLPREKPLPRPRPLTRWQQFARLKGIRPKKKTNLVWDEVSGQWRRRWGYQRARDDTKEWLIEVPGNADPLEDQFAKRIQAKKERVAKNELNRLRNLARAHKMQLPSAAGLHPTGHQSKEELGRAMQVAKVSTASVGRFQERLPKEKVPRGSGKKRKFQPLFGDFAAEKKNQLELLRVMNSKKPQLDVTRATNKQMREEDQEEAAKRRKMSQKGKRKGGRQGPGGKRKGGPPSQGGKRKGGLGGKMNSGPPGLGGKRKGGQRPGGKRRK
- Total: 3
- Unique: 3
- Total (peptides) [1]: 3
- Unique (peptides) [1]: 3
